For one molecule, binding results are on record in article PMC11349225.

No constants are given. Whether binding was seen depends on the method and setting. Binding seen in cells or lysates may run through a third protein. A yes stands for co-enrichment or nearness to the bait. Other partners may have been found.

In this experiment the target is A. japonicus Myc (AjMyc), endogenous (Apostichopus japonicus (endogenous in coelomocytes)). The experiment in a line: affinity purification with mass spectrometry; immunoprecipitation from coelomocyte lysate with anti-AjMyc antibodies or pre-immune serum, followed by MS (PXD051548).

B1: A. japonicus OTU domain-containing ubiquitin aldehyde-binding protein 1 (AjOTUB1), endogenous (enzyme, UniProt A0AB39JB66 1-266)
chain: MAENPDNKIDEEIERLTGMVRDEAILAQQDRIQKEVEDSNALVSERLPLLILKEEYQSDPIYSKKIEDMNASFPYIRKTRGDGNCFFRAFGFAYMEKLLSDKAELHRFKEIIEKSKDTLISLGCPSFTLMDFHDTFMEVVNQLEEKPSLSELVATYCDQGMSDYLVVYLRLLTSLELQKEAEFYQNFVEGNRTVKEFCSQEVEPMYKESDHIHIIALTSYLGVGVRVVYLDRGENQKVNHHDFPEGMPPQIALLYRPGHYDVLYGD
As to B1, the binding entry was “binds”.
